# Laboratory results reported in PubChem BioAssay AID1487 (National Center for Advancing Translational Sciences (NCATS), 2009).
# Among all 200,000 compounds or so, about 25 (0.01%) were called active. The inconclusive results got no clear call from the source; some entries with a clear call stand among them for comparison. Calls come from the whole dose curve; as a rule, active = well fitted inhibition curve with a large enough effect in the signal ratio, with a control signal flat (not every such curve was filed as active); inconclusive = small, poorly fitted or top-dose-only effect, or effect the other way, or a change in a side signal; inactive = flat fitted curve, though single readings scatter; the % refers to the signal ratio. A potency beside an inconclusive call is a rough fit, not a confirmed value.
# Assay: qHTS Assay for Modulators of Lamin A Splicing
# Settings: HeLa LMNA splicing GFP/RFP minigene ratio, 48 h; ratio change, negative = inhibition: at 46.1 µM (top of the series) unless noted
# How it was run: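 S3 HeLa cells stably expressing lamin A-EGFP splicing minigene plus DsRed2, 600 cells/well, 48 h compound exposure at 37C. Laser-scanning cytometry; analysed as GFP (500-530 nm)/RFP (575-640 nm) total intensity ratio; 0.5% DMSO vehicle.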
# % is set by controls: 0 for no effect and ±100 for the full control effect; potency is the fitted concentration of half-maximal effect.
SMILES,"ratio change, negative = inhibition",Potency
Cc1cccc(N(C(=O)Cn2nnc3ccccc32)C(C(=O)NC(C)(C)C)c2ccsc2)c1 (stereo not given),inactive,
COc1ccccc1-c1nc(NCCc2cnc[nH]2)c2ccccc2n1,inconclusive: -25.7%,
COc1ccc(CNC(=O)C2CCN(S(=O)(=O)c3c(C)noc3/C=C/c3ccccc3F)CC2)cc1,inactive,
COc1ccccc1NC(=O)CSc1c2c(nc3ccccc13)CCC2,inconclusive: -31.4%,
O=C(NNC1=C(C(=O)C(F)(F)F)CCC1)c1cccc(O)c1,inconclusive: -32.4%,
O=C(Nc1ccc(N2CCCC2)cc1)c1cccc(-c2cc3ccccc3oc2=O)c1,inactive,
COC(c1ccccc1)c1nnc(CCC(=O)N2CCN(CCOc3ccccc3)CC2)o1 (stereo not given),inconclusive: 4.65% [at 46 µM],
CCOCCCNC(=O)c1ccc(-n2c(-c3ccccc3)cc3c2CCCC3)cc1,inconclusive: -6.44% [at 46 µM],
Cc1ccc(NC(=O)/C=C\C(=O)N(c2ccc(C(C)C)cc2)C(C(=O)NCc2ccco2)c2ccc(Cl)cc2)cc1 (stereo not given),inconclusive: -25.6% [at 46 µM],
O=C(CS(=O)(=O)c1cccc2nsnc12)Nc1ccccc1Cl,inconclusive: 3.9% [at 46 µM],
CCOc1ccccc1-n1c(SCC(=O)N2CCCC2)nnc1-c1ccc(O)cc1,inconclusive: 8.62%,
COc1cc(C(=O)NCC(c2ccc3c(c2)OCO3)N2CCOCC2)cc(OC)c1OC (stereo not given),inactive,
COCCn1c(C)cc(C(=O)CSc2nc3ccccc3c(=O)n2C(C)COC)c1C (stereo not given),inconclusive: -9.24% [at 46 µM],
O=C(c1ccc(N2CCC3(CC2)OCCO3)c([N+](=O)[O-])c1)N1CCOCC1,inconclusive: 14.6% [at 46 µM],
CCOc1ccc(-c2cc3c(=O)n(CC(=O)NCc4ccc(C)cc4)ccn3n2)cc1,inactive,
CC(C)CCNC(=O)CN1C(=O)CSc2ccc(S(=O)(=O)N3CCC(C)CC3)cc21,inconclusive: -6% [at 46 µM],
Cc1cc2cccc(C)c2nc1SCC(=O)NNC(=O)c1ccco1,inconclusive: -12.5% [at 46 µM],
O=C(OC1CCN(c2ncc(C(F)(F)F)cc2Cl)CC1)c1ccc(Cl)cc1,inactive,
Cc1ccc(NC(=O)CSc2nc(=O)n(Cc3cccnc3)c3c2CCC3)cc1F,inconclusive: -13.1% [at 46 µM],
COc1ccc(Cc2nc3ccc(C(=O)NCc4ccccc4C)cc3o2)cc1,inconclusive: 9.99% [at 46 µM],

# By substructure: the entries above containing a Cl atom.
SMILES,"ratio change, negative = inhibition",Potency
Cc1ccc(NC(=O)/C=C\C(=O)N(c2ccc(C(C)C)cc2)C(C(=O)NCc2ccco2)c2ccc(Cl)cc2)cc1 (stereo not given),inconclusive: -25.6% [at 46 µM],
O=C(CS(=O)(=O)c1cccc2nsnc12)Nc1ccccc1Cl,inconclusive: 3.9% [at 46 µM],
O=C(OC1CCN(c2ncc(C(F)(F)F)cc2Cl)CC1)c1ccc(Cl)cc1,inactive,

# (list continues)

SMILES,"ratio change, negative = inhibition",Potency
O=C(NN1CCCCC1)c1cccc(COc2ccc(Cl)cc2)c1,inconclusive: -41.1%,
COc1cc(Br)cc(/C=N/c2ncn[nH]2)c1O,,"inconclusive: 12.6 µM [inhibitor, partial curve]"
Cc1nnsc1C(=O)N/N=C/c1ccc(OC(F)(F)F)cc1,inconclusive: 16.7% [at 46 µM],
COC(=O)c1c(NC(=O)COC(=O)[C@@H](NS(=O)(=O)c2cccc(Cl)c2)C(C)C)sc2c1CCC2,inconclusive: -22.2%,
OCCN(Cc1ccccc1)CC1CC2C=CC1C2 (stereo not given),inactive,
O=c1[nH]c(C2CC2)nc2sc3c(c12)CCCC3,inactive,
Cc1ccc(S(=O)(=O)/N=c2\sccn2C)cc1,inactive,
Cc1ccc(S(=O)(=O)NCC2CCC(C(=O)NCCc3ccccc3)CC2)cc1 (stereo not given),inactive,
CC1CCCCN1C(=O)CSc1ccc(-c2ccc(F)cc2)nn1 (stereo not given),inactive,
Cc1ccc(C(=O)N/C(=C/c2ccco2)C(=O)NC2CCS(=O)(=O)C2)cc1 (stereo not given),,"inconclusive: 0.004 µM [activator, full curve, poor fit]"
COc1cccc(C2=CC(c3cc(OC)ccc3OC)n3nnnc3N2)c1 (stereo not given),inconclusive: -12%,
Cn1c(N)c(C(=O)COC(=O)COc2ccc3ccccc3c2)c(=O)n(C)c1=O,inconclusive: -0.506% [at 46 µM],
COc1ccc2[nH]c3c(c2c1)CCNC3C1CC=C(C)CC1 (stereo not given),inconclusive: -8.42% [at 46 µM],
COC(=O)c1cc2sc(Cl)cc2n1Cc1nc(-c2cccc(C)c2)oc1C,inactive,
CC(=O)Oc1ccc(N2C(=O)C3C(C2=O)C2(C)C=CC3(C)O2)cc1 (stereo not given),,"inconclusive: 22.4 µM [falling, single point]"
Nn1c(SCC(=O)Nc2ccc3c(c2)OCO3)nnc1-c1ccncc1,inactive,
OCCN1CCN(c2ncnc3sc(-c4ccccc4)cc23)CC1,inconclusive: -29.9% [at 46 µM],
CC(=O)c1c(O)ccc2c(-c3ccccc3)cc(=O)oc12,,"inconclusive: 35.5 µM [fluorescent, single point]"
Oc1ccc(O)c(Cc2nc3ccccc3[nH]2)c1,,"inconclusive: 35.5 µM [cytotoxic, single point]"
CC1NC(=S)N(C2CCCCC2)C1=O (stereo not given),,"inconclusive: 35.5 µM [inhibitor, single point]"
